Data as given in PubChem BioAssay AID1259308 (NCATS, 2017)

Screen: 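Genes whose loss raises luciferase production in HEK293 cells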 (primary screen)
System: human HEK293 embryonic kidney cells stably expressing firefly luciferase (HEK-CMV-Luc2-Hygro)
Reagents: single siRNA against human genes, 0.8 pmol siRNA per well
Time to read-out: 72 h
Measurement: 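Reporter luminescence and viable-cell signal on separate replicate plates, given as percent of non-targeting control and median/MAD z-scores, plus per-cell luciferase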
Direction: total luciferase, z-score: higher = more reporter protein produced
Rule for the call: 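An siRNA counts as active if its total luciferase robust z-score exceeds 3; genes with two or more such siRNAs out of three were retested with fresh siRNAs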
Meaning of the calls: active = raised luciferase; inactive = no rise
The whole screen tested about 59,000 reagents; shown is a random part of them. Over the whole deposit, about 1,510 (2.6%) are marked active. 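Calls use total luciferase alone and ignore viability, so some active siRNAs may act by altering cell number.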 Entries without a mark were called inactive. Not all columns of the deposit are shown.

For LINC01600 (GeneID 154386) [SID160759423], how do the results read?
total luciferase, z-score: 0.0534

With LINC01600 (GeneID 154386) [SID160759424], what does the deposit list?
total luciferase, z-score: -1.07

What is on record for LINC01600 (GeneID 154386) [SID160759425]?
total luciferase, z-score: 0.076

What did the screen give for ZBTB32 (GeneID 27033) [SID160738271]?
total luciferase, z-score: 0.987

What is on record for ZBTB32 (GeneID 27033) [SID160738272]?
total luciferase, z-score: 0.544

Which result is listed for ZBTB32 (GeneID 27033) [SID160738273]?
total luciferase, z-score: 0.0268

With ZNF680 (GeneID 340252) [SID160764391], how do the results read?
total luciferase, z-score: -0.719

For ZNF680 (GeneID 340252) [SID160764392], what was measured?
total luciferase, z-score: 1.5

For ZNF680 (GeneID 340252) [SID160764393], how do the results read?
total luciferase, z-score: 0.275

What did the screen give for LINC-PINT (GeneID 378805) [SID160765529]?
total luciferase, z-score: 1.53

How did the screen score LINC-PINT (GeneID 378805) [SID160765530]?
total luciferase, z-score: 0.688

For LINC-PINT (GeneID 378805) [SID160765532], what was measured?
total luciferase, z-score: -1.23

For LINC-PINT (GeneID 378805) [SID160768453], what was measured?
total luciferase, z-score: 1.17

With LINC-PINT (GeneID 378805) [SID160768454], what does the deposit list?
total luciferase, z-score: 0.215

What did the screen give for LINC-PINT (GeneID 378805) [SID160768455]?
total luciferase, z-score: 0.215

For KCNIP1 (GeneID 30820) [SID160731061], what does the deposit list?
total luciferase, z-score: 0.279

Which result is listed for KCNIP1 (GeneID 30820) [SID160739530]?
total luciferase, z-score: 1.69

What did the screen give for KCNIP1 (GeneID 30820) [SID160739531]?
total luciferase, z-score: -0.392

For AP5M1 (GeneID 55745) [SID160744241], what was measured?
total luciferase, z-score: 3.47 (active)

For AP5M1 (GeneID 55745) [SID160744242], how do the results read?
total luciferase, z-score: -0.755

For AP5M1 (GeneID 55745) [SID160744245], what was measured?
total luciferase, z-score: 0.938

How did the screen score BRDTP1 (GeneID 643486) [SID160733817]?
total luciferase, z-score: -0.118

For BRDTP1 (GeneID 643486) [SID160768904], what was measured?
total luciferase, z-score: 0.263

For BRDTP1 (GeneID 643486) [SID160768905], how do the results read?
total luciferase, z-score: -0.4

With LMCD1 (GeneID 29995) [SID160739463], what was measured?
total luciferase, z-score: 1.49

For LMCD1 (GeneID 29995) [SID160739464], what does the deposit list?
total luciferase, z-score: -0.455

With LMCD1 (GeneID 29995) [SID160739466], what does the deposit list?
total luciferase, z-score: 0.229

With PURG (GeneID 29942) [SID160739350], what was measured?
total luciferase, z-score: 1.06

Which result is listed for PURG (GeneID 29942) [SID160739351]?
total luciferase, z-score: 0.239

With PURG (GeneID 29942) [SID160739352], how do the results read?
total luciferase, z-score: -0.912

For PRSS56 (GeneID 646960) [SID160725993], what does the deposit list?
total luciferase, z-score: -0.0766

With PRSS56 (GeneID 646960) [SID160725994], what does the deposit list?
total luciferase, z-score: 2.15

With PRSS56 (GeneID 646960) [SID160770077], what was measured?
total luciferase, z-score: -0.286

With ZNF704 (GeneID 619279) [SID160768388], what was measured?
total luciferase, z-score: 0.998

With ZNF704 (GeneID 619279) [SID160768389], what does the deposit list?
total luciferase, z-score: 0.887

With ZNF704 (GeneID 619279) [SID160768390], how do the results read?
total luciferase, z-score: 2.82

For SPIN4 (GeneID 139886) [SID160757744], how do the results read?
total luciferase, z-score: 0.668

With SPIN4 (GeneID 139886) [SID160757745], how do the results read?
total luciferase, z-score: 1.67

For SPIN4 (GeneID 139886) [SID160757746], how do the results read?
total luciferase, z-score: 1.5

What is on record for TMEM43 (GeneID 79188) [SID160734930]?
total luciferase, z-score: -0.847

What is on record for TMEM43 (GeneID 79188) [SID160748778]?
total luciferase, z-score: -1.29

What is on record for TMEM43 (GeneID 79188) [SID160748779]?
total luciferase, z-score: -0.147

Targets listed so far whose gene name begins with B or b (3):
BRDTP1 (GeneID 643486) [SID160733817] → total luciferase, z-score: -0.118
BRDTP1 (GeneID 643486) [SID160768904] → total luciferase, z-score: 0.263
BRDTP1 (GeneID 643486) [SID160768905] → total luciferase, z-score: -0.4
